Source: patent publication US20260000698A1 (priority 2022, published 2026)
At least one structure is not confirmed: it was looked up by name or label, or the drawing left a doubt.

Tested on: SARS-CoV-2 isolate USA-WA1/2020
Settings: A549 AT cells

SMILES: Nc1ncnc2c1ncn2[C@@H]1O[C@H](C[C@@H](N)CC[C@H](N)C(=O)O)[C@@H](O)[C@H]1O [sinefungin, reference compound]
- antiviral activity: failed to show any activity
